Measured values published in paper PMC2944796.
No constants are given. Whether binding was seen depends on the method and setting. In cells and extracts the contact can be indirect. These calls come from enrichment with a bait or labelling near it, and not all partners need be listed.

Target: Myc-His-DCAF26 (N. crassa)
Experiment: affinity purification with mass spectrometry; Myc-His-DCAF26 from the dcaf26^KO, qa-Myc-His-DCAF26 strain purified on a nickel column, then c-Myc antibody agarose; SDS-PAGE, silver stain, excised bands by LC-MS/MS; wild-type strain as negative control

B1: DIM-5 (enzyme, UniProt Q8X225 1-331)
chain: MEKAFRPHFFNHGKPDANPKEKKNCHWCQIRSFATHAQLPISIVNREDDAFLNPNFRFIDHSIIGKNVPVADQSFRVGCSCASDEECMYSTCQCLDEMAPDSDEEADPYTRKKRFAYYSQGAKKGLLRDRVLQSQEPIYECHQGCACSKDCPNRVVERGRTVPLQIFRTKDRGWGVKCPVNIKRGQFVDRYLGEIITSEEADRRRAESTIARRKDVYLFALDKFSDPDSLDPLLAGQPLEVDGEYMSGPTRFINHSCDPNMAIFARVGDHADKHIHDLALFAIKDIPKGTELTFDYVNGLTGLESDAHDPSKISEMTKCLCGTAKCRGYLW
For B1, the binding was “binds”.

B2: protein encoded by NCU07855 (protein, UniProt Q7SBV3 1-555)
chain: MEAHAQPQRSRKRPSRTTRVPDAGNGASAAAAAQGPGVVPVSQGWGQHPVQSQHQHTVQHGVPQHSQHAHQTHQVQQPHPGAHPHQAHHQQVQVQHQHQHQHPQAVRAHPDTVSAQPPTFASQQLDTRSHQVPADPDGLMNGYNAPQHQQYADPPSSSLAPAPQPDNSGLTSLSNLTGDNGASHQQHHQQRSQHQQLQLQHHAQQQQQQQQQQQQQVQQQQQAQQAQQQQQQQQQRTSVAPSSTTDRVNFNTYPNHSAPNDSSPSPVTVATSSAGYNNLSGWTQPVANSTAQSTMPPPSPAPALAPPPEGIYRTFEDLLASVQKVAKDQGYGVVKLRASNYREGKPTRYDLVCDRGGVKYSSTAKKRNPSTRKVDCPWRAKAVCEVNLGNQWRFAVQEARHNHEPRIPAAVPGQENTPIAQSIRSITNKIDRLQHDQTTSFQRLEANVSTILARIDNMEKRLDAIESGRPSMLGGNGVPSMGTPSMPTANMGGGNLGNGPMTNGGMSGGHIVDTRLNSMEARMNAMEQRGNPMDGLPMMDDDTGRLAMNQMMVST
In the case of B2, the binding is reported as “binds”.

B3: NCU04152 (DIM-7) (protein, UniProt Q1K7K7 1-666)
chain: MAGPGRPRRRRGSSASIDSTDDRRRRWTRELAILKPVTPGTSDDLWPYFAVLTDATIYQKDGKTLANPLHVDLEGPFIVRGKLEPVEDGDDEARECFHKPYNKATYIEISRSERYSIGYEPNTLWVSGASGWFEIIPSRKYETMYNEVMEAITLYYGIMGPYEEHKRLLKKADKKKRKDVKPPSLDEIFFSYALTAGDGAVTVKEEVEARCLKWAQFLLAHFPKESEIRWQDTGFAAWLQSARPDLQKKISDVAAGLLTKPAAEPEGLLARDDHSPQPQSLAIREPPKGGRTTRTSRQASELSDQRSDKGKGIARDSPVETPIPAPVSNRHLSSSSPRPRASPAVITGSDDLPDDPVDRLIVLLGEVAQRIDIKTVKMSKINSDLFYNCRIKYYNAARELCEHFAKDLLERLPPMWDNTPYRAWLEDVVENGRPAPVEFVVEDIPQYLTRRTRRQTHISRLSSALGPTPSVEAESKDEVRAGKQPRVGRPSGKVATLRVAGSKRLASDMIDEDELPPRRGRKALKRTVRVEEDEDSDANSVIIDMTDNTGVIPKDAVRIVVQAERLPTMSPAGPNGTWTCDQEGCNYVVRSADEPEGQDLISKHFKDHEEQAQKINLAMEESKAGHLPINHLLDKIQAMGKNALAKKRGSLNGEPLPLPIKRRLLI
In the case of B3, the binding is reported as “binds”.

B4: protein encoded by NCU06123 (protein, UniProt Q7S5G5 1-827)
chain: MSDSNELEVESISPFGPARSTIKGEPLTKEEIDKFNDFFKASLYLSLGMIYLRDNPLLKEPLDTKHLKARLLGHFGSAPGQIFTWMHFNRLIKKYDLDSIFISGPGHGAPAVLSQAYLEGTYSEVYPEISEDEEGMQKFFKHFSFPGGIGSHATPETPGSIHEGGELGYSISHAFGAVFDHPNLIALTMVGDGEAETGPLATSWHSTKFLNPITDGAVLPVLHLNGYKINNPTILARISHKELENLFRGYGYEPYFVEGDDVDTMHQAMAATLEHCVLEIRKFQQKARESGKAFRPRWPVIILRSPKGWTGPRKIDDKFLEGFWRAHQVPITDVHEKPEHLKILEQWMKSYEPDRIFRDGRISEDLKDLCPTGTRRMSANPVANGGIIRKTLRMPDFRNYALKVDKPASIMAASMTNMSMFLRDVIAGNPTTFRLFGPDETESNKLGKVYEAGKKVWLGEYFEEDKDGGNLAPEGRVMEMLSEHTCEGWLEGYILTGRHGLLNSYEPFIHVIDSMVNQHCKWLEKCLEVEWRHKVASLNILLTAVVWRQDHNGFTHQDPGFLDVVANKSPEIVRIYLPPDGNCLLSVTDHCLRSSNYVNVIVADKQEHLQYLSMDDATIHCTKGIGIWPQFSSDRGEEPDLVMASCGDISTHESLAAIDLLLQHFPELKIRCVNCVDLFKLISHDEHPHGLTDAEWISLFTDNRPIIFNFHSYPWLVHRLTYKRPGSHNVHVRGYREKGNIDTPLELAIRNGTDRFSLAMAAIDHMTGILGNRGAAAREQLRNEQLKAKAMAFEVGMDPPFLKNWTWPHTGLWSKGEARVASEQHLH
With B4 the binding was “binds”.
